According to the supplement of paper PMC12823440, “Inhibitors supercharge kinase turnover through native proteolytic circuits” (Nature, 2025):
Where a name gives a salt, the structure may show the parent alone. Some of the results follow. The calls rarely recur for the same compound in another form.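 Kinases were expressed as nanoluciferase fusions in K562 cells and luminescence was read every 4 h between 2 and 18 h as percent of control, DMSO set to 100% and a positive control to 0%. A time point counts as decreased when the signal drops significantly (2 sigma). The hit call is the authors' own, does not follow from the count of time points alone, and its rule is not shown.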

Chains of the proteins cited; added tags and fusions are not shown. Lines headed by an entry give the natural chain unless they say otherwise; changes in a name come on top.
UniProt P21860, whole entry: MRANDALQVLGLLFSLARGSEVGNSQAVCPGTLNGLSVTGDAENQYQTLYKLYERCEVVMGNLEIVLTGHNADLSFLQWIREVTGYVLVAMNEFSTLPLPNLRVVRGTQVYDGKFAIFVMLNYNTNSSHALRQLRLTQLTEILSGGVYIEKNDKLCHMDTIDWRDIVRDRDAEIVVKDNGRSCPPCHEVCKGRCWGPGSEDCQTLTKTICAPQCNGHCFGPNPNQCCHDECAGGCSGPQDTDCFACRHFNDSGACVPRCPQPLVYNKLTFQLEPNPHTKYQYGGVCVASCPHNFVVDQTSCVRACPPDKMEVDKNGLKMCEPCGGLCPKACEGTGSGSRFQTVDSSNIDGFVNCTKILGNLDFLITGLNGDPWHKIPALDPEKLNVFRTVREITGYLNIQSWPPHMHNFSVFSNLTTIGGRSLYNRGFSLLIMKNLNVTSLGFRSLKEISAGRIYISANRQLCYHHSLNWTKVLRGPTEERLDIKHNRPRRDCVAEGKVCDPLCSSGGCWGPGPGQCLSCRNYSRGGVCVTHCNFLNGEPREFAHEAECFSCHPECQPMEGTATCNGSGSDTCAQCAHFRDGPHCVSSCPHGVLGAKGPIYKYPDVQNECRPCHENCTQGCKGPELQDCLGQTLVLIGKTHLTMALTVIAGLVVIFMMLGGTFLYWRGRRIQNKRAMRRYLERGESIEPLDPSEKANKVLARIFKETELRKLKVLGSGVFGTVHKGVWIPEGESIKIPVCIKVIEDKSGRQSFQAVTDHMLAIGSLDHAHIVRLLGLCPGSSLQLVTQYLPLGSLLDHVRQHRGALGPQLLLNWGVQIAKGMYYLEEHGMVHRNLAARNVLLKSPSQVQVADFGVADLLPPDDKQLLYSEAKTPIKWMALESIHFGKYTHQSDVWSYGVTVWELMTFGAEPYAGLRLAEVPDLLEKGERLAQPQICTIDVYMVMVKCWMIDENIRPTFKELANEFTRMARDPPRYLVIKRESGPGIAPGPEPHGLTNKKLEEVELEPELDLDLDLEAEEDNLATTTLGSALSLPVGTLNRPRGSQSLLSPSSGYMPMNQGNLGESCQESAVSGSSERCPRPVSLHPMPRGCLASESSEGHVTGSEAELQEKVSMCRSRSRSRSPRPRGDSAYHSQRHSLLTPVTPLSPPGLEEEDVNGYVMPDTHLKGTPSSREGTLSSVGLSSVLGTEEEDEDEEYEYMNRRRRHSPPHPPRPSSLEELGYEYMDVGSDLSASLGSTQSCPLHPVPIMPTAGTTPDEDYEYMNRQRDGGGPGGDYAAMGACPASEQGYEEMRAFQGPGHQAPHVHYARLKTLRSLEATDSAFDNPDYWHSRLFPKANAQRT
UniProt O75460: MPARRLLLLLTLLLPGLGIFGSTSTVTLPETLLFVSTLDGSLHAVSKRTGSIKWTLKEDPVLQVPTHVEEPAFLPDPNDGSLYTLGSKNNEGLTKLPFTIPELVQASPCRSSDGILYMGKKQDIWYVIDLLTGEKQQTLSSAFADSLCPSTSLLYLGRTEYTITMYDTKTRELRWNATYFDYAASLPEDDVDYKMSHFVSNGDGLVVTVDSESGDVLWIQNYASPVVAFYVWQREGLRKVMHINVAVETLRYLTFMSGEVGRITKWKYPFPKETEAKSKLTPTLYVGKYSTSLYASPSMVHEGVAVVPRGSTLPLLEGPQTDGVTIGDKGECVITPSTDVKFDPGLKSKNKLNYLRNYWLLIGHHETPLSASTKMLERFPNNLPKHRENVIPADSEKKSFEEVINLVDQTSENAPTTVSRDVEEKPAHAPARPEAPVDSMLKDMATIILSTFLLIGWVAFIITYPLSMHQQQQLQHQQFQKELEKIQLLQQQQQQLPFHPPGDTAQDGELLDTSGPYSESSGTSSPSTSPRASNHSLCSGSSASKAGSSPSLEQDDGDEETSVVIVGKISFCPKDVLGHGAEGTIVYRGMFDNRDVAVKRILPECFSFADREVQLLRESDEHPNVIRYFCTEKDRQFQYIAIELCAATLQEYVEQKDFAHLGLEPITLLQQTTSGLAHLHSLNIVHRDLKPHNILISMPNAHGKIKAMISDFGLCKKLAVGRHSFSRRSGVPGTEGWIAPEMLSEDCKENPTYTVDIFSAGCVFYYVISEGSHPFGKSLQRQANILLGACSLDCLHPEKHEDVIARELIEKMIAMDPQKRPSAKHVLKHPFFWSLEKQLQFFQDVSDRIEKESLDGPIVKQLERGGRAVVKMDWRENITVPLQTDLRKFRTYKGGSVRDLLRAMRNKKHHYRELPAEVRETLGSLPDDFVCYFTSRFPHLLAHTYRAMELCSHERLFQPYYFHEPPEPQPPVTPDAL
UniProt P11362, whole entry, looked up: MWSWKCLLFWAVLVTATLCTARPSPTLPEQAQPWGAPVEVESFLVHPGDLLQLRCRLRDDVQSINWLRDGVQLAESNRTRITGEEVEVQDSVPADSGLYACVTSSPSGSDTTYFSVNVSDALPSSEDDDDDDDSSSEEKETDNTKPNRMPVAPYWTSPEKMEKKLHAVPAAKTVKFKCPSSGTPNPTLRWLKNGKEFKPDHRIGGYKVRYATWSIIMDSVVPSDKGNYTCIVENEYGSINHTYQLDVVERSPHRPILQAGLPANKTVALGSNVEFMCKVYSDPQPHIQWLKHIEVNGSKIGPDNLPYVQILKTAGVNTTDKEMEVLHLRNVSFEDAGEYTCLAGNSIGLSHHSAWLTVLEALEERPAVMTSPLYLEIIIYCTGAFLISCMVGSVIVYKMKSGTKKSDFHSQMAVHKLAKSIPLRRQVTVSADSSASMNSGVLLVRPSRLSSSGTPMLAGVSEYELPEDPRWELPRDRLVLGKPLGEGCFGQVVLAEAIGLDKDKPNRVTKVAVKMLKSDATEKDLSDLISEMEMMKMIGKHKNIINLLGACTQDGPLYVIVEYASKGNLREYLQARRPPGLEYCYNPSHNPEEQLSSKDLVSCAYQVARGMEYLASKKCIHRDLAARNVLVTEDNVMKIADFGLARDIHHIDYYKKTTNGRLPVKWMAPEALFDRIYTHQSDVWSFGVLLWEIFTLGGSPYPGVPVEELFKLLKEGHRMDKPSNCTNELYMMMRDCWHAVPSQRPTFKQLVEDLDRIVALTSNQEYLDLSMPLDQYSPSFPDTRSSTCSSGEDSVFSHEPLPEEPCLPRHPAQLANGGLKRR
UniProt P22607, whole entry, looked up: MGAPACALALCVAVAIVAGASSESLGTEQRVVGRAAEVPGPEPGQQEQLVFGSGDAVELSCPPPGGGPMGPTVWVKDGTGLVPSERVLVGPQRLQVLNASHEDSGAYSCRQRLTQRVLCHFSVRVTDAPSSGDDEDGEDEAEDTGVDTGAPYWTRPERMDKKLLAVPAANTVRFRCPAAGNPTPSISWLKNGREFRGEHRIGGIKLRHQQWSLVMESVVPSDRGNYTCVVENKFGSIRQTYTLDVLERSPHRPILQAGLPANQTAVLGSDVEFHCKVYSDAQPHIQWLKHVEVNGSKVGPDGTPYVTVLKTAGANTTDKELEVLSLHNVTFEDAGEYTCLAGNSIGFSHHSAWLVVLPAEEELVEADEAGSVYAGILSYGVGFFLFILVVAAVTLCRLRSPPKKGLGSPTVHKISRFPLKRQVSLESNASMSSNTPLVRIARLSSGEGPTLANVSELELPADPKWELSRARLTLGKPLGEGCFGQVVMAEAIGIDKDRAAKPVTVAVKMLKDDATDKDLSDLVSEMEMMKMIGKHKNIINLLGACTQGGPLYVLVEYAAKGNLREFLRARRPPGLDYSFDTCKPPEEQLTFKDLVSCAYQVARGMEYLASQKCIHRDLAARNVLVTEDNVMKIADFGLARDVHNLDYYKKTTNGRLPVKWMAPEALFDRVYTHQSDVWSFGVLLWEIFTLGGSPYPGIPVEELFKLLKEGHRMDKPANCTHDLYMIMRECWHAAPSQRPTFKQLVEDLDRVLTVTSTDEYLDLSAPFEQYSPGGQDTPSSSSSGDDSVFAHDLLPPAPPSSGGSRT
UniProt P06241, whole entry, looked up: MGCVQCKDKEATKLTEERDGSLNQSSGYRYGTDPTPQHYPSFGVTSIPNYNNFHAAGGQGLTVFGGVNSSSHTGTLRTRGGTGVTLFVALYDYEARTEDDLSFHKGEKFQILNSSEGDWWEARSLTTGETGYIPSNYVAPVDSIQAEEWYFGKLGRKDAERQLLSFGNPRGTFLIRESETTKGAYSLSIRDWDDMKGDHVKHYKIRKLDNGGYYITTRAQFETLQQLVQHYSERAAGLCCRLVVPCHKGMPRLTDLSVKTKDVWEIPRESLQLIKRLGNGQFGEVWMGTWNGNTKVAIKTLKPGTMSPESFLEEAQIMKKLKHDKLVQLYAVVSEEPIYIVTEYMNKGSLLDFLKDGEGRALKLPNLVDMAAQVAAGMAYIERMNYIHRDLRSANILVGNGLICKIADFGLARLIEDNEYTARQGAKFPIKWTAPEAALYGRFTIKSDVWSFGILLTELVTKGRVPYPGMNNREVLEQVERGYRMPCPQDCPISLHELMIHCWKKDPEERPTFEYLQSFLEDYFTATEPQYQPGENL
UniProt P49840: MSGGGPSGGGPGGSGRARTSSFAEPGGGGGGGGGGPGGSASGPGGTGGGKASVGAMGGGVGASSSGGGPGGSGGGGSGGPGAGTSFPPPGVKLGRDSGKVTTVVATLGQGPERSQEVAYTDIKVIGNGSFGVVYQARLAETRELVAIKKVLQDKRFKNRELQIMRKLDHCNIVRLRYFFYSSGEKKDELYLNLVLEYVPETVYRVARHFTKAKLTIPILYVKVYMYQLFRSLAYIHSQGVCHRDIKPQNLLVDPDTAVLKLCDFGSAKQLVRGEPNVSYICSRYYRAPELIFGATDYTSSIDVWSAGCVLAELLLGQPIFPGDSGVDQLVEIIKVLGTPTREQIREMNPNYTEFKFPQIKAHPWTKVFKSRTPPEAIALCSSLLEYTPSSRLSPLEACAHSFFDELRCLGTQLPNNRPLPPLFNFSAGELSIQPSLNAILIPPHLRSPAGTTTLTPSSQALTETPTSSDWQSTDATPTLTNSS
UniProt P14616: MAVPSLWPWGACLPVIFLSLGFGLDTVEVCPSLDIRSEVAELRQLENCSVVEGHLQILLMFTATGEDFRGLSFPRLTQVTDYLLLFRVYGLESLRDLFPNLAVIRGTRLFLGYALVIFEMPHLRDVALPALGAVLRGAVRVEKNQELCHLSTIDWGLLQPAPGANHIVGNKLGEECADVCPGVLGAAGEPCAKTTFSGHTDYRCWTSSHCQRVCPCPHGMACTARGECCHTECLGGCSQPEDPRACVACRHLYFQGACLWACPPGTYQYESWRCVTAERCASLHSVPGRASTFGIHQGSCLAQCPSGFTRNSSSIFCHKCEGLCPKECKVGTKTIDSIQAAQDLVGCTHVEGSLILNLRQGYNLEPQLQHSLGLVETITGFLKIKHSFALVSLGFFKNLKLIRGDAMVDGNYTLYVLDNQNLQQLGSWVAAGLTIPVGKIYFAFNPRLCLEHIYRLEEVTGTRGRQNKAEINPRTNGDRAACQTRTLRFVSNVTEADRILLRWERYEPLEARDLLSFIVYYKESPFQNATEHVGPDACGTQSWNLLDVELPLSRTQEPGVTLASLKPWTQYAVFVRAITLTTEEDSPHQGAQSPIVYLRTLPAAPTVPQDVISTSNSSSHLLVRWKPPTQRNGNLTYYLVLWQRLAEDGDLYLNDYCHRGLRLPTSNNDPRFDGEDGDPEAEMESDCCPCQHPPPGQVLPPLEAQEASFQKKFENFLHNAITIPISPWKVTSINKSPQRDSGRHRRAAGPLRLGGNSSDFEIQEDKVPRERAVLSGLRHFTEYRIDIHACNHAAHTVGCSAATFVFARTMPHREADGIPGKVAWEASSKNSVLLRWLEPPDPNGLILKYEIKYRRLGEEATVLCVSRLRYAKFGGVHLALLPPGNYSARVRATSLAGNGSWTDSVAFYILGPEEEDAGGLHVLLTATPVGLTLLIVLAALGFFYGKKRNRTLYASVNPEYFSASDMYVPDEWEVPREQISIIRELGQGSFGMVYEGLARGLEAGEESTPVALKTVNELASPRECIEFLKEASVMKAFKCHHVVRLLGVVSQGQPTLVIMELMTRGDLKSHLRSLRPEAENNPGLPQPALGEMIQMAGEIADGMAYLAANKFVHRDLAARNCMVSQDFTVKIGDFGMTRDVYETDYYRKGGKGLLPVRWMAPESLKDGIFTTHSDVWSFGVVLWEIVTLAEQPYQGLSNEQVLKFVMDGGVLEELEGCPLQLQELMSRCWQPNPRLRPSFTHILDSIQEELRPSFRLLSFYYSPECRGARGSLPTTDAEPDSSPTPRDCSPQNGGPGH

Key:
Test in all cases: kinase-Nluc reporter destabilization hit call (1 = scored as downregulated) (binary); higher = compound decreases kinase abundance
Conditions in all cases: K562, 2-18 h
EGFR = EGFR (UniProt P00533)
EGFR_G719S = EGFR_G719S (UniProt P00533)
EGFR_G719S_T790M = EGFR_G719S_T790M (UniProt P00533)
EGFR_L718V = EGFR_L718V (UniProt P00533)
EGFR_L858R = EGFR_L858R (UniProt P00533)
EGFR_L861Q = EGFR_L861Q (UniProt P00533)
EGFR_T790M = EGFR_T790M (UniProt P00533)
EPHA2 = EPHA2 (UniProt P29317)
ERBB3 = ERBB3 (UniProt P21860)
[1] = biological target: ERBB4_R711C (clone: ERBB4_mut) (UniProt Q15303)
ERN1 = ERN1 (UniProt O75460)
FGFR1 = FGFR1 (UniProt P11362)
FGFR2 = FGFR2 (UniProt P21802)
FGFR3 = FGFR3 (UniProt P22607)
FGR = FGR (UniProt P09769)
FLT3 = FLT3 (UniProt P36888)
FYN = FYN (UniProt P06241)
GSK3A = GSK3A (UniProt P49840)
HER2 = HER2 (UniProt P04626)
INSRR = INSRR (UniProt P14616)

Measured: kinase-Nluc reporter destabilization hit call

COc1ccc(S(=O)(=O)N(CCO)c2ccccc2CN(C)C/C=C/c2ccc(Cl)cc2)cc1 [KN-93 (hydrochloride)]
inactive: EGFR; 2.5 µM 0 | EGFR_G719S; 2.5 µM 0 | EGFR_G719S_T790M; 2.5 µM 0 | EGFR_L718V; 2.5 µM 0 | EGFR_L858R; 2.5 µM 0 | EGFR_L861Q; 2.5 µM 0 | EGFR_T790M; 2.5 µM 0 | EPHA2; 2.5 µM 0 | ERBB3; 2.5 µM 0 | [1]; 2.5 µM 0 | ERN1; 2.5 µM 0 | FGFR1; 2.5 µM 0 | FGFR2; 2.5 µM 0 | FGFR3; 2.5 µM 0 | FGR; 2.5 µM 0 | FLT3; 2.5 µM 0 | FYN; 2.5 µM 0 | GSK3A; 2.5 µM 0 | HER2; 2.5 µM 0 | INSRR; 2.5 µM 0

N#CCNC(=O)c1ccc(-c2ccnc(Nc3ccc(N4CCOCC4)cc3)n2)cc1 [Momelotinib]
inactive: EGFR; 10 µM 0 | EGFR_G719S; 10 µM 0 | EGFR_G719S_T790M; 10 µM 0 | EGFR_L718V; 10 µM 0 | EGFR_L858R; 10 µM 0 | EGFR_L861Q; 10 µM 0 | EGFR_T790M; 10 µM 0 | EPHA2; 10 µM 0 | ERBB3; 10 µM 0 | [1]; 10 µM 0 | ERN1; 10 µM 0 | FGFR1; 10 µM 0 | FGFR2; 10 µM 0 | FGFR3; 10 µM 0 | FGR; 10 µM 0 | FLT3; 10 µM 0 | FYN; 10 µM 0 | GSK3A; 10 µM 0 | HER2; 10 µM 0 | INSRR; 10 µM 0

CN(C)C(=O)c1cc2cnc(Nc3ccc(N4CCNCC4)cn3)nc2n1C1CCCC1 [Ribociclib succinate]
inactive: EGFR; 10 µM 0 | EGFR_G719S; 10 µM 0 | EGFR_G719S_T790M; 10 µM 0 | EGFR_L718V; 10 µM 0 | EGFR_L858R; 10 µM 0 | EGFR_L861Q; 10 µM 0 | EGFR_T790M; 10 µM 0 | EPHA2; 10 µM 0 | ERBB3; 10 µM 0 | [1]; 10 µM 0 | ERN1; 10 µM 0 | FGFR1; 10 µM 0 | FGFR2; 10 µM 0 | FGFR3; 10 µM 0 | FGR; 10 µM 0 | FLT3; 10 µM 0 | FYN; 10 µM 0 | GSK3A; 10 µM 0 | HER2; 10 µM 0 | INSRR; 10 µM 0

CNC(=O)c1ccc(Nc2ncc(C(F)(F)F)c(NCc3nccnc3N(C)S(C)(=O)=O)n2)cc1 [Defactinib]
inactive: EGFR; 10 µM 0 | EGFR_G719S; 10 µM 0 | EGFR_G719S_T790M; 10 µM 0 | EGFR_L718V; 10 µM 0 | EGFR_L858R; 10 µM 0 | EGFR_L861Q; 10 µM 0 | EGFR_T790M; 10 µM 0 | EPHA2; 10 µM 0 | ERBB3; 10 µM 0 | [1]; 10 µM 0 | ERN1; 10 µM 0 | FGFR1; 10 µM 0 | FGFR2; 10 µM 0 | FGFR3; 10 µM 0 | FGR; 10 µM 0 | FLT3; 10 µM 0 | FYN; 10 µM 0 | GSK3A; 10 µM 0 | HER2; 10 µM 0 | INSRR; 10 µM 0

O=C(O)c1ccc2c(c1)nc(Nc1cccc(Cl)c1)c1ccncc12 [Silmitasertib (sodium salt)]
inactive: EGFR; 10 µM 0 | EGFR_G719S; 10 µM 0 | EGFR_G719S_T790M; 10 µM 0 | EGFR_L718V; 10 µM 0 | EGFR_L858R; 10 µM 0 | EGFR_L861Q; 10 µM 0 | EGFR_T790M; 10 µM 0 | EPHA2; 10 µM 0 | ERBB3; 10 µM 0 | [1]; 10 µM 0 | ERN1; 10 µM 0 | FGFR1; 10 µM 0 | FGFR2; 10 µM 0 | FGFR3; 10 µM 0 | FGR; 10 µM 0 | FLT3; 10 µM 0 | FYN; 10 µM 0 | GSK3A; 10 µM 0 | HER2; 10 µM 0 | INSRR; 10 µM 0

O=C(Nc1ccncc1)Nc1ccc(-c2nc(N3CCOCC3)nc(N3C4CCC3COC4)n2)cc1
inactive: EGFR; 10 µM 0 | EGFR_G719S; 10 µM 0 | EGFR_G719S_T790M; 10 µM 0 | EGFR_L718V; 10 µM 0 | EGFR_L858R; 10 µM 0 | EGFR_L861Q; 10 µM 0 | EGFR_T790M; 10 µM 0 | EPHA2; 10 µM 0 | ERBB3; 10 µM 0 | [1]; 10 µM 0 | ERN1; 10 µM 0 | FGFR2; 10 µM 0 | FGFR3; 10 µM 0 | FGR; 10 µM 0 | FLT3; 10 µM 0 | FYN; 10 µM 0 | GSK3A; 10 µM 0 | HER2; 10 µM 0 | INSRR; 10 µM 0
active: FGFR1; 10 µM 1

Cn1cc(-c2cnc3ccc4ccc(CS(=O)(=O)NCc5ccccn5)cc4c(=O)c3c2)cn1 [MK-8033 (hydrochloride)]
inactive: EGFR; 10 µM 0 | EGFR_G719S; 10 µM 0 | EGFR_G719S_T790M; 10 µM 0 | EGFR_L718V; 10 µM 0 | EGFR_L858R; 10 µM 0 | EGFR_L861Q; 10 µM 0 | EGFR_T790M; 10 µM 0 | EPHA2; 10 µM 0 | ERBB3; 10 µM 0 | [1]; 10 µM 0 | ERN1; 10 µM 0 | FGFR1; 10 µM 0 | FGFR2; 10 µM 0 | FGFR3; 10 µM 0 | FGR; 10 µM 0 | FLT3; 10 µM 0 | FYN; 10 µM 0 | GSK3A; 10 µM 0 | HER2; 10 µM 0 | INSRR; 10 µM 0

COc1ccc2c(c1)C(c1ccc(F)cc1)=C(CN1CCCC1)CO2 [AX-024 hydrochloride]
inactive: EGFR; 10 µM 0 | EGFR_G719S; 10 µM 0 | EGFR_G719S_T790M; 10 µM 0 | EGFR_L718V; 10 µM 0 | EGFR_L858R; 10 µM 0 | EGFR_L861Q; 10 µM 0 | EGFR_T790M; 10 µM 0 | EPHA2; 10 µM 0 | ERBB3; 10 µM 0 | [1]; 10 µM 0 | ERN1; 10 µM 0 | FGFR1; 10 µM 0 | FGFR2; 10 µM 0 | FGFR3; 10 µM 0 | FGR; 10 µM 0 | FLT3; 10 µM 0 | FYN; 10 µM 0 | GSK3A; 10 µM 0 | HER2; 10 µM 0 | INSRR; 10 µM 0

CCCC(=O)Nc1ncnc2c1ncn2[C@@H]1O[C@@H]2COP(=O)(O)O[C@H]2[C@H]1OC(=O)CCC [Bucladesine (sodium)]
inactive: EGFR; 10 µM 0 | EGFR_G719S; 10 µM 0 | EGFR_G719S_T790M; 10 µM 0 | EGFR_L718V; 10 µM 0 | EGFR_L858R; 10 µM 0 | EGFR_L861Q; 10 µM 0 | EGFR_T790M; 10 µM 0 | EPHA2; 10 µM 0 | ERBB3; 10 µM 0 | [1]; 10 µM 0 | ERN1; 10 µM 0 | FGFR1; 10 µM 0 | FGFR2; 10 µM 0 | FGFR3; 10 µM 0 | FGR; 10 µM 0 | FLT3; 10 µM 0 | FYN; 10 µM 0 | GSK3A; 10 µM 0 | HER2; 10 µM 0 | INSRR; 10 µM 0
